PubChem BioAssay AID248 (DTP/NCI, 2004)
The list does not hold the whole screen: it gathers tests that were run many times, whatever their T/C, doses with no T/C, and many T/C values between a quarter and a half above the control. Other doses and runs of a compound stand elsewhere. T/C: endpoint of the treated group in % of that of the vehicle group. Some doses have a count of surviving animals in place of a T/C: the source holds a T/C of zero for them, seemingly a mark for toxic or unscored doses. Some doses without a T/C left all or most animals alive at the check, yet need not have been tolerated: the source hardly ever lists a survival T/C far under the control, and the zero likely stands for such cases as well. Survivors were counted at the toxicity check, usually on the fifth day, unless a day is given; later deaths do not show. Schedules are NCI's codes, taken here to give the interval after Q, in days (D) or hours (H), and the number of doses after X. Some schedule codes hold Z or #, which are not explained here. Some entries hold several experiments; the values are given in rising order. Where survival is the endpoint, the PubChem record calls one and a half times the control and up active, and a quarter to a half above the control has no call in these data; cut-offs in other NCI protocols can differ. Some T/C values carry the count of animals alive at the toxicity check (mostly the fifth day); where none is given, no animal had died by that day.

Test system: L1210 leukemia ip in BDF1 mice, survival T/C
Experiment: NCI In Vivo Anticancer Drug Screen. Data for tumor model L1210 Leukemia (intraperitoneal) in B6D2F1 (BDF1) mice
Details: T/C endpoint: mean survival time, higher T/C = longer survival
[1] = dose: 400.0 mg/kg/injection, schedule: Q01DX009 (ip), vehicle: saline
[2] = dose: 50.0 mg/kg/injection, schedule: Q01DX009 (ip), vehicle: saline with Tween-80
[3] = dose: 400.0 mg/kg/injection, schedule: Q01DX001 (ip), vehicle: saline

Cc1ccc(C(C)NC2=NCCO2)c(C)c1 (stereo unspecified)
survivor count (dose: 200.0 mg/kg/injection, schedule: Q04DX003 (ip), vehicle: saline with Tween-80): 1 of 6 | survivor count (dose: 400.0 mg/kg/injection, schedule: Q04DX003 (ip), vehicle: saline with Tween-80): 0 of 6

[O]=[Sb]([OH])([c]1ccccc1)[c]1ccccc1
survivor count (dose: 40.0 mg/kg/injection, schedule: Q01DX001 (ip), vehicle: saline): 0 of 6

CCOC(=O)/C=C(\C)N1CCCCC1
survivor count [1]: 3 of 6

N#CSCc1ccc(Cl)cc1
survivor count [2]: 6 of 6 | survivor count (dose: 100.0 mg/kg/injection, schedule: Q01DX009 (ip), vehicle: saline with Tween-80): 0 of 6

CCOC(=O)c1cc(C=O)nc2c(Cl)cc(Cl)cc12
survivor count (dose: 400.0 mg/kg/injection, schedule: Q01DX009 (ip), vehicle: saline with Tween-80): 3 of 6

CC(=O)Nc1ccc2c(c1)C(N)c1ccccc1-2 (stereo unspecified)
T/C (dose: 200.0 mg/kg/injection, schedule: Q01DX009 (ip), vehicle: saline): 148 % of control | T/C (dose: 200.0 mg/kg/injection, schedule: Q01DX Z (ip), vehicle: saline): 134 % of control | survivor count (dose: 300.0 mg/kg/injection, schedule: Q01DX009 (ip), vehicle: saline with Tween-80): 3 of 6 | survivor count (dose: 300.0 mg/kg/injection, schedule: Q01DX Z (ip), vehicle: carboxymethylcellulose (CMC)): 5 of 6 | survivor count (dose: 300.0 mg/kg/injection, schedule: Q01DX Z (ip), vehicle: saline): 3 of 6 | survivor count [1]: 1 of 6

CC1(C)N=C(N)N=C(N)N1c1cccc(OCCOc2ccc(N)cc2)c1
survivor count (dose: 80.0 mg/kg/injection, schedule: Q01DX001 (ip), vehicle: saline): 2 of 6 | survivor count (dose: 100.0 mg/kg/injection, schedule: Q01DX001 (ip), vehicle: saline): 2 of 6 | survivor count (dose: 200.0 mg/kg/injection, schedule: Q01DX001 (ip), vehicle: saline): 0 of 6 | survivor count [3]: 0 of 6

CCCCCCCCCCCC(C1CCC(C)CC1)C1CCC(C)CC1 (stereo unspecified)
survivor count (dose: 200.0 mg/kg/injection, schedule: Q01DX001 (ip), vehicle: saline with Tween-80): 6 of 6

CN(C)c1ccc(/C=C(\C#N)c2ccccc2)cc1
survivor count (dose: 400.0 mg/kg/injection, schedule: Q01DX001 (ip), vehicle: saline with Tween-80): 6 of 6

O=C(O)c1cncc(-c2ccccc2)c1
survivor count (dose: 400.0 mg/kg/injection, schedule: Q04DX002 (ip), vehicle: saline with Tween-80): 0 of 3

O=C(CNC(=O)c1ccc(Cl)cc1Cl)N/N=C/c1ccc(Cl)c(Cl)c1
survivor count (dose: 12.5 mg/kg/injection, schedule: Q01DX009 (ip), vehicle: saline with Tween-80): 3 of 3 | survivor count [2]: 3 of 3 | survivor count (dose: 200.0 mg/kg/injection, schedule: Q01DX009 (ip), vehicle: saline with Tween-80): 1 of 3

CSc1nc(N)nc2c1ncn2C1OC(CO)C(O)C1O (stereo unspecified)
T/C (dose: 300.0 mg/kg/injection, schedule: Q01DX009 (ip), vehicle: saline): 131 % of control | T/C [3]: 125 and 126 % of control | T/C (dose: 600.0 mg/kg/injection, schedule: Q01DX001 (ip), vehicle: saline): 132 % of control [4 of 6 alive]

C/C(O)=C(\C#N)c1ccc(Cl)cc1
survivor count (dose: 50.0 mg/kg/injection, schedule: Q01DX001 (ip), vehicle: carboxymethylcellulose (CMC)): 3 of 3 | survivor count (dose: 100.0 mg/kg/injection, schedule: Q01DX009 (ip), vehicle: carboxymethylcellulose (CMC)): 1 of 3 | survivor count (dose: 200.0 mg/kg/injection, schedule: Q01DX001 (ip), vehicle: carboxymethylcellulose (CMC)): 0 of 3 and 0 of 6

COCCOC(=O)C(=O)OCCOC
survivor count (dose: 400.0 mg/kg/injection, schedule: Q01DX001 (ip), vehicle: Klucel (hydroxypropylcellulose) (HPC)): 2 of 6

[CH3][Hg][O]C(C)=O
survivor count (dose: 12.0 mg/kg/injection, schedule: Q01DX009 (ip), vehicle: Klucel (hydroxypropylcellulose) (HPC)): 5 of 6 | survivor count (dose: 25.0 mg/kg/injection, schedule: Q04DX003 (ip), vehicle: Klucel (hydroxypropylcellulose) (HPC)): 5 of 6 | survivor count (dose: 50.0 mg/kg/injection, schedule: Q04DX003 (ip), vehicle: Klucel (hydroxypropylcellulose) (HPC)): 0 of 6 | survivor count (dose: 100.0 mg/kg/injection, schedule: Q04DX003 (ip), vehicle: Klucel (hydroxypropylcellulose) (HPC)): 0 of 6 | survivor count (dose: 200.0 mg/kg/injection, schedule: Q04DX003 (ip), vehicle: Klucel (hydroxypropylcellulose) (HPC)): 0 of 6 | survivor count (dose: 400.0 mg/kg/injection, schedule: Q04DX003 (ip), vehicle: Klucel (hydroxypropylcellulose) (HPC)): 0 of 6
